Source: PMC10291571
No constants are given. Whether binding was seen depends on the method and setting. In cells and extracts the contact can be indirect. Some binding calls cover weakened binding; strength is not graded here.

By UniProt entry, the sequences of proteins in these tests, tags left out. Residues count along the entry.
UniProt Q16620, residues 32-822: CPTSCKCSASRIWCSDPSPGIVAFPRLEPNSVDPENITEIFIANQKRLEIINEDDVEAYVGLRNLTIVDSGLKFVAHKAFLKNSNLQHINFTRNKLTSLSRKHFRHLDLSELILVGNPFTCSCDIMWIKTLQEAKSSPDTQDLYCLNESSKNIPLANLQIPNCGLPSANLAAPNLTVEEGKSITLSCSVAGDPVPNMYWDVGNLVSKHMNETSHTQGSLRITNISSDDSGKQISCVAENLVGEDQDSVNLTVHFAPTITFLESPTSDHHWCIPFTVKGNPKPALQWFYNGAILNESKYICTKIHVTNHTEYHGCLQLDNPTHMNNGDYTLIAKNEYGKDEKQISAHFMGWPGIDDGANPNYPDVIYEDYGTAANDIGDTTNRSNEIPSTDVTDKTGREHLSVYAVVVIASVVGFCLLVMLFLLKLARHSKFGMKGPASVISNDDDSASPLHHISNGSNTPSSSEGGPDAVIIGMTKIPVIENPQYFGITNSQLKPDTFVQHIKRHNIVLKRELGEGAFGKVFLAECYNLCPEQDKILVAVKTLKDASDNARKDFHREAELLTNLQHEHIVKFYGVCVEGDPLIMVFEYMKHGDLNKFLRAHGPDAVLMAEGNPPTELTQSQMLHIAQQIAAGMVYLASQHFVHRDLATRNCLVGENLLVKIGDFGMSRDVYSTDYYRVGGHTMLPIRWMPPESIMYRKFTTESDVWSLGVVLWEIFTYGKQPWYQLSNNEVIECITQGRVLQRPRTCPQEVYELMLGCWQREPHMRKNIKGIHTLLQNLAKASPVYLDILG

What was measured:
[1] = target: tropomyosin-related kinase B (TrkB), full-length human, expressed as differently tagged copies (human) (UniProt Q16620); test: proximity ligation; HEK293 cells transfected with Myc-TrkB, treated with 7,8-DHF or bSWNTs for 30 min or left as control; fixed; two anti-Myc primary antibodies, Duolink PLA probes; confocal microscopy
[2] = target: tropomyosin-related kinase B (TrkB), full-length human, expressed as differently tagged copies (human) (UniProt Q16620); test: FRET or BRET; HEK293 cells transfected with TrkB-CFP (donor) and TrkB-YFP (acceptor), treated with 7,8-DHF or bSWNTs for 30 min or left as control; confocal microscopy, pixel-by-pixel apparent FRET efficiency (Eapp)
[3] = target: tropomyosin-related kinase B (TrkB), full-length human, expressed as differently tagged copies (human) (UniProt Q16620); test: co-IP; HEK293 cells transfected with TrkB-GFP and Myc-TrkB, treated with 7,8-DHF or SWNTs for 30 min; lysis in 50 mM Tris-HCl pH 7.5, 150 mM NaCl, 1 mM EDTA, 1% Triton X-100; GFP-Trap agarose beads, 4 °C, 1 h; blots with anti-Myc and anti-GFP

Measured: binding

tropomyosin-related kinase B (TrkB), full-length human, expressed as differently tagged copies (from UniProt Q16620 32-822) (receptor)
binds: all assays above
